The record followed here is PMC10090947.

Sequences of proteins named here, by UniProt entry; tags and fusion partners are left off.
UniProt O95835: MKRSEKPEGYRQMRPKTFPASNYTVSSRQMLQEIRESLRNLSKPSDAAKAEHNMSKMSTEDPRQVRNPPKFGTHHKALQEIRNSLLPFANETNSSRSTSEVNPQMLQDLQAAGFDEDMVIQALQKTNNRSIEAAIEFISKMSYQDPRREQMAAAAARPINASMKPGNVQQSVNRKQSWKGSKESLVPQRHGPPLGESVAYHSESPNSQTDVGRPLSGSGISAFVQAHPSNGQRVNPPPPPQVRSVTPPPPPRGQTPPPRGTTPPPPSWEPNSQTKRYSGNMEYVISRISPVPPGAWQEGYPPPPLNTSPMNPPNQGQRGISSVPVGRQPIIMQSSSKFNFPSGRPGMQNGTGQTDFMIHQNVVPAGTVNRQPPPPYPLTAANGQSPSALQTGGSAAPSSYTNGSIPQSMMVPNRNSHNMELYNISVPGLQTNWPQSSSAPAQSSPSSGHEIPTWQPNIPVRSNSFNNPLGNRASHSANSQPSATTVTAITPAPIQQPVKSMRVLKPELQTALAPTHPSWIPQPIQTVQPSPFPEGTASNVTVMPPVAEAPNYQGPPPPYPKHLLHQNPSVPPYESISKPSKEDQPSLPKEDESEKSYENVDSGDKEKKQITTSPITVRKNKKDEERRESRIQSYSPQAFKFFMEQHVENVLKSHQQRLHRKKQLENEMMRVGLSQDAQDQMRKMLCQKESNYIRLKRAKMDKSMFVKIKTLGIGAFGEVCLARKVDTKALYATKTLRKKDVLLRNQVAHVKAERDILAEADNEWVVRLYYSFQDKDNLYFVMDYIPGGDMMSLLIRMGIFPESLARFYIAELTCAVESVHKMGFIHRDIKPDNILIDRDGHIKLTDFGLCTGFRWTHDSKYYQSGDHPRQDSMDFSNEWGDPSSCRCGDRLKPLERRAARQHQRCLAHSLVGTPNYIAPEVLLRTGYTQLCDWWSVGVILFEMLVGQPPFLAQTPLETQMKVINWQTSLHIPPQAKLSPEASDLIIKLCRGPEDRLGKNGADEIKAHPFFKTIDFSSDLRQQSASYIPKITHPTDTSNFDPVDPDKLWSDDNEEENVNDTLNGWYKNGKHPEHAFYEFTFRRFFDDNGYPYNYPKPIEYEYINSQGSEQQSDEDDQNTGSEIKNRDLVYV
UniProt Q15678: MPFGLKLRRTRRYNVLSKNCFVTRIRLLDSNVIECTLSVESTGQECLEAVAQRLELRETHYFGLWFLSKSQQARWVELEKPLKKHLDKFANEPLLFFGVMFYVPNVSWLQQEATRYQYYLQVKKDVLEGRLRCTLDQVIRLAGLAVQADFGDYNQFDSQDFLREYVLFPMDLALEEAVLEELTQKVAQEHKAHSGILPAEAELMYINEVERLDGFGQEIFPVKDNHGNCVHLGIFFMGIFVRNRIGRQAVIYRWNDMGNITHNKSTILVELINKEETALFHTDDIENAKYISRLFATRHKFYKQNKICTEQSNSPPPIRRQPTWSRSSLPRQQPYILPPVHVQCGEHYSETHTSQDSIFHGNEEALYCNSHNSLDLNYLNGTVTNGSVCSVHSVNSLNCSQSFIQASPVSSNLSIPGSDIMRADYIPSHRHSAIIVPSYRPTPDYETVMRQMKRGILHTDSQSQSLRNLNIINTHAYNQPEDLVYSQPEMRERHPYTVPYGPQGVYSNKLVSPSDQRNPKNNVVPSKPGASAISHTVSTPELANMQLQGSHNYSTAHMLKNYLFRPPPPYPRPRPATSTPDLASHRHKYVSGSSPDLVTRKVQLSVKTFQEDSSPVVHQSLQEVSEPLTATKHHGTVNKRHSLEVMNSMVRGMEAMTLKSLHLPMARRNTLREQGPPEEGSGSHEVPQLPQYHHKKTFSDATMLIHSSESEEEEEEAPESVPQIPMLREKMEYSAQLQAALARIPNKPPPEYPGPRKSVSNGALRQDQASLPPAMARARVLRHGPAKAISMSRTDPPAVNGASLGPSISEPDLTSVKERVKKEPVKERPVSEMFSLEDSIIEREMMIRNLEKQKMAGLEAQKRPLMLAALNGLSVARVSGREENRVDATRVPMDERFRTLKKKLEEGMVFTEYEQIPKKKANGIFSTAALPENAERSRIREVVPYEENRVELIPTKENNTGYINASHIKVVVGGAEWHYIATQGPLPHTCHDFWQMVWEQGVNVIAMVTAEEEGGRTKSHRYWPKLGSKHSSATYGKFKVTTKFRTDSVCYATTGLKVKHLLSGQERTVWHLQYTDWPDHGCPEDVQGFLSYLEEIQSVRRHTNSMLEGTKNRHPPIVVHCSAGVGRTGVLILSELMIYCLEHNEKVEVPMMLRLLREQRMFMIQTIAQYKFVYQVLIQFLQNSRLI

The target of one test is Strep‐HA LATS1 (human) (UniProt O95835). Put plainly: affinity purification with mass spectrometry; reciprocal quantitative Strep AP-MS from HEK293 cells expressing Strep-HA YAP1, LATS1, PTPN14 or GFP (control) under an inducible promoter; targeted PRM with heavy reference peptides; three replicates.
Test [1] deals with Strep‐HA YAP1 (wild type) (human). Put plainly: affinity purification with mass spectrometry + native gel or EMSA; AP-BNPAGE: Strep-HA YAP1 complexes captured on Strep-Tactin Sepharose, eluted with 2.5 mM biotin, separated on Native PAGE 3-12% Bis-Tris at 4°C, 64 gel slices measured by MS; co-migration modules by protein correlation profiling. Background: A gel shift assay detects complexes by their altered migration in electrophoresis.

The target is the same in test [2]. As to the kind of experiment: affinity purification with mass spectrometry; Strep-HA YAP1 from induced T-REx Flp-In HEK293 cells captured on Strep-Tactin Sepharose from cleared lysate (0.5% NP40, 50 mM HEPES pH 7.5, 150 mM NaCl, 50 mM NaF); cells untreated or treated with vanadate (2, 20 min) or okadaic acid (60, 150 min); interactors filtered by SAINT > 0.90 against Strep-HA GFP controls; MS1 quantification.

No constants are given. Whether binding was seen depends on the method and setting. Binding seen in cells or lysates may run through a third protein. A yes stands for co-enrichment or nearness to the bait. Other partners may have been found.

Take “nonreceptor tyrosine phosphatase 14 (PTPN14), endogenous (from UniProt Q15678 1-1187) (enzyme)”: the binding result with Strep‐HA LATS1 (human) is “binds”.

B1: MOB1A (protein, UniProt Q9H8S9 1-216)
chain: MSFLFSSRSSKTFKPKKNIPEGSHQYELLKHAEATLGSGNLRQAVMLPEGEDLNEWIAVNTVDFFNQINMLYGTITEFCTEASCPVMSAGPRYEYHWADGTNIKKPIKCSAPKYIDYLMTWVQDQLDDETLFPSKIGVPFPKNFMSVAKTILKRLFRVYAHIYHQHFDSVMQLQEEAHLNTSFKHFIFFVQEFNLIDRRELAPLQELIEKLGSKDR
B1: the binding result in test [1] is recorded as “binds”.

B2: MOB1B (protein, UniProt Q7L9L4 1-216)
chain: MSFLFGSRSSKTFKPKKNIPEGSHQYELLKHAEATLGSGNLRMAVMLPEGEDLNEWVAVNTVDFFNQINMLYGTITDFCTEESCPVMSAGPKYEYHWADGTNIKKPIKCSAPKYIDYLMTWVQDQLDDETLFPSKIGVPFPKNFMSVAKTILKRLFRVYAHIYHQHFDPVIQLQEEAHLNTSFKHFIFFVQEFNLIDRRELAPLQELIEKLTSKDR
Regarding B2, in test [1], the binding entry is reported as “binds”.

B3: 1433F (protein, UniProt Q04917 1-246)
chain: MGDREQLLQRARLAEQAERYDDMASAMKAVTELNEPLSNEDRNLLSVAYKNVVGARRSSWRVISSIEQKTMADGNEKKLEKVKAYREKIEKELETVCNDVLSLLDKFLIKNCNDFQYESKVFYLKMKGDYYRYLAEVASGEKKNSVVEASEAAYKEAFEISKEQMQPTHPIRLGLALNFSVFYYEIQNAPEQACLLAKQAFDDAIAELDTLNEDSYKDSTLIMQLLRDNLTLWTSDQQDEEAGEGN
As for B3, the binding result in test [2] was “binds”.

B4: AMOTL1 (protein, UniProt Q8IY63 1-956)
chain: MWRAKLRRGTCEPAVKGSPSACYSPSSPVQVLEDSTYFSPDFQLYSGRHETSALTVEATSSIREKVVEDPLCNFHSPNFLRISEVEMRGSEDAAAGTVLQRLIQEQLRYGTPTENMNLLAIQHQATGSAGPAHPTNNFSSTENLTQEDPQMVYQSARQEPQGQEHQVDNTVMEKQVRSTQPQQNNEELPTYEEAKAQSQFFRGQQQQQQQQGAVGHGYYMAGGTSQKSRTEGRPTVNRANSGQAHKDEALKELKQGHVRSLSERIMQLSLERNGAKQHLPGSGNGKGFKVGGGPSPAQPAGKVLDPRGPPPEYPFKTKQMMSPVSKTQEHGLFYGDQHPGMLHEMVKPYPAPQPVRTDVAVLRYQPPPEYGVTSRPCQLPFPSTMQQHSPMSSQTSSASGPLHSVSLPLPLPMALGAPQPPPAASPSQQLGPDAFAIVERAQQMVEILTEENRVLHQELQGYYDNADKLHKFEKELQRISEAYESLVKSTTKRESLDKAMRNKLEGEIRRLHDFNRDLRDRLETANRQLSSREYEGHEDKAAEGHYASQNKEFLKEKEKLEMELAAVRTASEDHRRHIEILDQALSNAQARVIKLEEELREKQAYVEKVEKLQQALTQLQSACEKREQMERRLRTWLERELDALRTQQKHGNGQPANMPEYNAPALLELVREKEERILALEADMTKWEQKYLEESTIRHFAMNAAATAAAERDTTIINHSRNGSYGESSLEAHIWQEEEEVVQANRRCQDMEYTIKNLHAKIIEKDAMIKVLQQRSRKDAGKTDSSSLRPARSVPSIAAATGTHSRQTSLTSSQLAEEKKEEKTWKGSIGLLLGKEHHEHASAPLLPPPPTSALSSIASTTAASSAHAKTGSKDSSTQTDKSAELFWPSMASLPSRGRLSTTPAHSPVLKHPAAKGTAEKLENSPGHGKSPDHRGRVSSLLHKPEFPDGEMMEVLI
As for B4, the binding entry in test [1] is given as “binds”.

B5: RASFF8 (protein, UniProt Q8NHQ8 1-419)
chain: MELKVWVDGVQRIVCGVTEVTTCQEVVIALAQAIGRTGRYTLIEKWRDTERHLAPHENPIISLNKWGQYASDVQLILRRTGPSLSERPTSDSVARIPERTLYRQSLPPLAKLRPQIDKSIKRREPKRKSLTFTGGAKGLMDIFGKGKETEFKQKVLNNCKTTADELKKLIRLQTEKLQSIEKQLESNEIEIRFWEQKYNSNLEEEIVRLEQKIKRNDVEIEEEEFWENELQIEQENEKQLKDQLQEIRQKITECENKLKDYLAQIRTMESGLEAEKLQREVQEAQVNEEEVKGKIGKVKGEIDIQGQQSLRLENGIKAVERSLGQATKRLQDKEQELEQLTKELRQVNLQQFIQQTGTKVTVLPAEPIEIEASHADIEREAPFQSGSLKRPGSSRQLPSNLRILQNPISSGFNPEGIYV
B5: the binding entry in test [2] is “binds”.
